# Results from one PubChem assay

Data taken from PubChem BioAssay AID1851, deposited by NCATS (2009).

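Human cytochrome P450 2D6 or 2C9 made recombinantly, with enzyme activity tracked through a luminescent signal from dealkylation of a luciferin precursor; timing is not given here. Percent change in enzyme activity at the series' top concentration, where 0 is the no-effect control and more negative values mean stronger inhibition. Calls come from the fitted dose curve: inactive means no well-fitted curve with a large enough effect, even if single readings are sizeable.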

Values are in %. Every entry below has the call inactive. Only inactive entries are shown; hits are left out here.

Compound,setting,activity (%)
C[N+](C)(C)CCCCCCCCCC[N+](C)(C)C,Cytochrome P450 2D6 (Homo sapiens); p450-cyp2d6; at 25.6 µM (top of the series),0.0659
COC(=O)C1=C(C)OC(N)=C(C#N)C1c1cc(OC)ccc1OC (centres unmarked),Cytochrome P450 2D6 (Homo sapiens); p450-cyp2d6; at 57.1 µM (top of the series),-1.404
O=C(O)CCCc1ccc(N(CCCl)CCCl)cc1,Cytochrome P450 2C9 (Homo sapiens); p450-cyp2c9; at 25.6 µM (top of the series),-9.784
CCN1C[C@]2(C)CC[C@H](O)[C@@]34[C@@H]5CC6[C@@H](OC)C[C@@](O)([C@@H]5[C@@H]6O)[C@H](C[C@@H]23)[C@H]14,Cytochrome P450 2C9 (Homo sapiens); p450-cyp2c9; at 25.6 µM (top of the series),13.03
CCS(=O)(=O)N(C)[C@@H]1c2cc(C#N)ccc2OC(C)(C)[C@H]1O,Cytochrome P450 2D6 (Homo sapiens); p450-cyp2d6; at 57.1 µM (top of the series),3.727
CC(C)(c1ccc(OC[C@@H]2CO2)cc1)c1ccc(OC[C@H]2CO2)cc1,Cytochrome P450 2C9 (Homo sapiens); p450-cyp2c9; at 57.1 µM (top of the series),-8.509
CC[C@@](O)(C(=O)O)c1cc2n(c(=O)c1CO)Cc1cc3ccccc3nc1-2,Cytochrome P450 2C9 (Homo sapiens); p450-cyp2c9; at 11.4 µM (top of the series),14.63
COc1ccc2nccc(C(=O)O)c2c1,Cytochrome P450 2D6 (Homo sapiens); p450-cyp2d6; at 25.6 µM (top of the series),-0.5799
CSc1nc(O)c(Cc2ccccc2)c(=O)[nH]1,Cytochrome P450 2D6 (Homo sapiens); p450-cyp2d6; at 57.1 µM (top of the series),9.823
CCOC(=O)C1CCN(C(=O)C2CCN(S(=O)(=O)N3CCCC3)CC2)CC1,Cytochrome P450 2D6 (Homo sapiens); p450-cyp2d6; at 57.1 µM (top of the series),17.37
CC[C@@]1(O)C(=O)OCc2c1cc1n(c2=O)Cc2cc3c(NC(=O)CN)cccc3nc2-1,Cytochrome P450 2C9 (Homo sapiens); p450-cyp2c9; at 11.4 µM (top of the series),5.899
Cn1c(=O)[nH]c(=O)c2c1nc(CN(Cc1ccccc1)Cc1ccccc1)n2CCN1CCOCC1,Cytochrome P450 2D6 (Homo sapiens); p450-cyp2d6; at 57.1 µM (top of the series),-7.91
CP(=O)(O)CCCN,Cytochrome P450 2C9 (Homo sapiens); p450-cyp2c9; at 57.1 µM (top of the series),10.29
CC1(CCC(=O)OC2CCCCC2)OCCO1,Cytochrome P450 2D6 (Homo sapiens); p450-cyp2d6; at 11.4 µM (top of the series),4.875
COc1ccc2cc1Oc1ccc(cc1)C[C@H]1c3cc(c(OC)cc3CCN1C)Oc1c(OC)c(OC)cc3c1[C@@H](C2)N(C)CC3,Cytochrome P450 2C9 (Homo sapiens); p450-cyp2c9; at 11.4 µM (top of the series),-9.07
CCON=C1C(C)(C)C(C)(C)C(C)(C)C1(C)C,Cytochrome P450 2D6 (Homo sapiens); p450-cyp2d6; at 11.4 µM (top of the series),-9.581
O=C(Nc1c(C(=O)N2CCCCC2)cnn1-c1ccccc1)c1ccco1,Cytochrome P450 2D6 (Homo sapiens); p450-cyp2d6; at 57.1 µM (top of the series),-3.828
CC1CC(C)CN(C(=O)CSc2nnc(CSc3ncccn3)n2C)C1 (centres unmarked),Cytochrome P450 2D6 (Homo sapiens); p450-cyp2d6; at 57.1 µM (top of the series),-11.2
COc1ccc(CC(=O)Nc2ccc(-c3nnc(-c4ccccc4)o3)cc2)cc1,Cytochrome P450 2D6 (Homo sapiens); p450-cyp2d6; at 57.1 µM (top of the series),10.85
CN(C)C(=O)/N=N\C(=O)N(C)C,Cytochrome P450 2D6 (Homo sapiens); p450-cyp2d6; at 57.1 µM (top of the series),-4.605
O=C(O)CC[N+](=O)[O-],Cytochrome P450 2C9 (Homo sapiens); p450-cyp2c9; at 57.1 µM (top of the series),22.27
NC(=O)CN1CCCC1=O,Cytochrome P450 2C9 (Homo sapiens); p450-cyp2c9; at 25.6 µM (top of the series),8.166
C[C@@]12CC[C@H](O)C[C@@H]1CC[C@@H]1[C@@H]2CC[C@@]2(C)[C@@H](C3=CC(=O)OC3)[C@H](O)C[C@]12O,Cytochrome P450 2C9 (Homo sapiens); p450-cyp2c9; at 11.4 µM (top of the series),4.717
CCOC(=O)c1c(NC(=O)c2ccc(N3CCOCC3)c([N+](=O)[O-])c2)sc(C)c1C,Cytochrome P450 2D6 (Homo sapiens); p450-cyp2d6; at 57.1 µM (top of the series),13.8
O=C(O)[C@H](CCc1ccccn1)c1ccccc1,Cytochrome P450 2D6 (Homo sapiens); p450-cyp2d6; at 11.4 µM (top of the series),-7.472

For reference, 2 entries once more:

Compound,setting,activity (%)
CC(C)(c1ccc(OC[C@@H]2CO2)cc1)c1ccc(OC[C@H]2CO2)cc1,Cytochrome P450 2C9 (Homo sapiens); p450-cyp2c9; at 57.1 µM (top of the series),-8.509
O=C(O)CCCc1ccc(N(CCCl)CCCl)cc1,Cytochrome P450 2C9 (Homo sapiens); p450-cyp2c9; at 25.6 µM (top of the series),-9.784